Test results taken from article PMC6286383.
These are yes or no findings as the source states them, for the method shown. Binding seen in cells or lysates may run through a third protein. A yes stands for co-enrichment or nearness to the bait. Other partners may have been found. For part of these data: No binding means not detected with the bait.

By UniProt entry, the sequences of proteins in these tests, tags left out.
UniProt Q5PSV9: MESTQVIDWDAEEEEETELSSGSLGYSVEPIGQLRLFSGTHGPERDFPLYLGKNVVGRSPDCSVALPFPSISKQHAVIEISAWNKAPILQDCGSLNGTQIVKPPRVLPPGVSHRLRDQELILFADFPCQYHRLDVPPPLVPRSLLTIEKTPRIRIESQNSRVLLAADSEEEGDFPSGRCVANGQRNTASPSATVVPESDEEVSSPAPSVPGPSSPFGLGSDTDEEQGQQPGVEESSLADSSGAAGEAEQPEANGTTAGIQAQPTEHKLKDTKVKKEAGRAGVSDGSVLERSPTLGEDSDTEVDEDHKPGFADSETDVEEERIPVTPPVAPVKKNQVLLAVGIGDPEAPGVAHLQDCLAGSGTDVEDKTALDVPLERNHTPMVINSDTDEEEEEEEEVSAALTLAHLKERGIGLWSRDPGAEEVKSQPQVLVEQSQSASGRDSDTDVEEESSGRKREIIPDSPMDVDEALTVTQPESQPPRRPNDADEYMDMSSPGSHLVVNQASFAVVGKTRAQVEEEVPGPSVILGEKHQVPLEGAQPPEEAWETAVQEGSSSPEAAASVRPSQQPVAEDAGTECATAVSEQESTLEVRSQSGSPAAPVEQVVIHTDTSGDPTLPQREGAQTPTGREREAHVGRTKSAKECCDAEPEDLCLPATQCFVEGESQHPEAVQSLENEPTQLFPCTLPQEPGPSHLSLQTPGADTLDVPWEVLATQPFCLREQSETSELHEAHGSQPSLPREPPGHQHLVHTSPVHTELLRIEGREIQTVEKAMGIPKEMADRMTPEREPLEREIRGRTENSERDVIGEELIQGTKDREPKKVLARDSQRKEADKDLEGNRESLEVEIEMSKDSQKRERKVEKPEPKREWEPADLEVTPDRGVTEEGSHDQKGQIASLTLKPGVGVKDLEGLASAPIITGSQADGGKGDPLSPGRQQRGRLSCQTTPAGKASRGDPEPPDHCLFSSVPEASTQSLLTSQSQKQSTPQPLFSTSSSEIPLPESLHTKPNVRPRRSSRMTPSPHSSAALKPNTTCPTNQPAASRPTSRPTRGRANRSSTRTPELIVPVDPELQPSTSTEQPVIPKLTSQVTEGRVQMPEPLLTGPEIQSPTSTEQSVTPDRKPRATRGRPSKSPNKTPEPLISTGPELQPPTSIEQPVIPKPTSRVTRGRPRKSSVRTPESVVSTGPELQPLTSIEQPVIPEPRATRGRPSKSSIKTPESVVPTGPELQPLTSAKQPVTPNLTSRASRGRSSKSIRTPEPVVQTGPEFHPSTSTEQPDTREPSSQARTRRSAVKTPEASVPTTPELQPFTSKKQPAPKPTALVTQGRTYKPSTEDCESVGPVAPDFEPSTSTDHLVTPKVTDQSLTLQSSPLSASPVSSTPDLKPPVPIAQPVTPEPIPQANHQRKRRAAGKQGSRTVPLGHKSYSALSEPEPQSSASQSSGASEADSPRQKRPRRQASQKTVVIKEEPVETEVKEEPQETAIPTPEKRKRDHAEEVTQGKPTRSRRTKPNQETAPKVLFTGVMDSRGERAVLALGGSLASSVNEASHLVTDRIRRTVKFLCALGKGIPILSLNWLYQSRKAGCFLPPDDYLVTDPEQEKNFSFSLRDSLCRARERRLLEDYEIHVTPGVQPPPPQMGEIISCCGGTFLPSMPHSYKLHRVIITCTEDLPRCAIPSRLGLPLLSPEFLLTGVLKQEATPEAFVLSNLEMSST

Experiments:
[1] = biological target: γH2AX (histone H2AX phosphorylated at serine-139) (mouse (endogenous in testis)) (UniProt P27661); experiment: affinity purification with mass spectrometry; IP-MS on P15 wild-type mouse testis with γH2AX and SETDB1 as bait; LFQ enrichment against control IgG-IP (Welch's t-test, FDR 0.01)
[2] = biological target: SETDB1 (mouse (endogenous in testis)) (UniProt O88974); experiment: as above

| Substance | binding [1] | binding [2] |
| --- | --- | --- |
| MDC1 (from UniProt Q5PSV9 1-1707) | binds | no binding |
| hnRNP K (from UniProt P61979 1-463) | binds |  |
